Some of the results follow. Many values rest on one well or one pass, so single values are uncertain.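 Cells were imaged in 1,536-well plates, and nuclei stained with an antibody against cleaved PARP were counted against all DNA-stained nuclei to give the apoptosis fraction. Screening doses were chosen to leave most cells alive, and resting and induced cleaved-PARP levels differ strongly between cell lines.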
Experiments:
Experiment in all cases: cleaved PARP positive nuclei fraction relative to DMSO control; melanoma cells; higher = more apoptosis
Settings in all cases: library dose: low library concentration; 72 h
WM115 = test system: WM115
WM1716 = test system: WM1716
WM1745 = test system: WM1745
WM3526 = test system: WM3526
WM3619 = test system: WM3619
WM451Lu = test system: WM451Lu

SMILES | cleaved PARP positive nuclei fraction (WM115) [%] | cleaved PARP positive nuclei fraction (WM1716) [%] | cleaved PARP positive nuclei fraction (WM1745) [%] | cleaved PARP positive nuclei fraction (WM3526) [%] | cleaved PARP positive nuclei fraction (WM3619) [%] | cleaved PARP positive nuclei fraction (WM451Lu) [%]
O=C(O)c1ccc2c(c1)nc(Nc1cccc(Cl)c1)c1ccncc12 + Cc1cc(SCc2sc(-c3ccc(C(F)(F)F)c(F)c3)nc2C)ccc1OCC(=O)O [GW0742] (first compound 0.4 µM, partner dose 2 µM) | 88 | 213 | 94.2 | 87.5 | 93.3 | 125
C=CCNC1=C2C[C@@H](C)C[C@H](OC)[C@H](O)[C@@H](C)/C=C(\C)[C@H](OC(N)=O)[C@@H](OC)/C=C\C=C(/C)C(=O)NC(=CC1=O)C2=O [Tanespimycin] + O=C(Oc1ccc([N+](=O)[O-])cc1)N1CCC(C(O)(c2ccc3c(c2)OCO3)c2ccc3c(c2)OCO3)CC1 [JZL184] (first compound 0.002 µM, partner dose 1 µM) | 57.5 | 106 | 95.4 | 82.8 | 97.8 | 68
Nc1ccn([C@@H]2O[C@H](CO)[C@@H](O)C2(F)F)c(=O)n1 [gemcitabine] + C/C(O)=C(\C#N)C(=O)Nc1cc(Br)ccc1Br [LFM-A13] (first compound 0.0004 µM, partner dose 2 µM) | 123 | 316 | 127 | 84.9 | 133 | 153
C[As](C)SC[C@H](NC(=O)CC[C@H](N)C(=O)O)C(=O)NCC(=O)O [Darinaparsin] + NCC(=O)Nc1ccc(-n2nc(C(F)(F)F)cc2-c2ccc3c(ccc4ccccc43)c2)cc1 [OSU03012] (first compound 0.4 µM, partner dose 1 µM) | 121 | 102 | 195 | 110 | 91.7 | 94.1
N.N.[Cl][Pt][Cl] [cisplatin] + CS(=O)(=O)CCNCc1ccc(-c2ccc3ncnc(Nc4ccc(OCc5cccc(F)c5)c(Cl)c4)c3c2)o1 [lapatinib] (first compound 1.6 µM, partner dose 0.8 µM) | 157 | 153 | 95.6 | 43.3 | 94.7 | 56.7
C[C@@H](N)c1ccc(C(=O)Nc2ccnc3[nH]ccc23)cc1 + C/C(O)=C(\C#N)C(=O)Nc1cc(Br)ccc1Br [LFM-A13] (first compound 0.4 µM, partner dose 2 µM) | 70.8 | 92.2 | 99.8 | 66.8 | 85.9 | 158
COc1cc2c(Oc3ccc4[nH]c(C)cc4c3F)ncnc2cc1OCCCN1CCCC1 [cediranib] + O=C(Oc1ccc([N+](=O)[O-])cc1)N1CCC(C(O)(c2ccc3c(c2)OCO3)c2ccc3c(c2)OCO3)CC1 [JZL184] (first compound 0.4 µM, partner dose 1 µM) | 261 | 95.8 | 105 | 81.2 | 77.7 | 65.6
Cn1cc(C2=C(c3cn(C4CCN(Cc5ccccn5)CC4)c4ccccc34)C(=O)NC2=O)c2ccccc21 [Enzastaurin] + Oc1nc(-c2ccc(C(F)(F)F)cc2)nc2c1CSCC2 [XAV939] (first compound 0.8 µM, partner dose 2 µM) | 38.1 | 217 | 196 | 86.3 | 95.7 | 121
N.N.[Cl][Pt][Cl] [cisplatin] + COc1ccc(-c2ccc3c(N4CCOCC4)nc(N4C[C@@H](C)O[C@@H](C)C4)nc3n2)cc1CO [KU0063794] (first compound 1.6 µM, partner dose 0.02 µM) | 68 | 100 | 98.9 | 77.5 | 105 | 27.2
N.N.[Cl][Pt][Cl] [cisplatin] + COc1ccc(COc2ccc(Cc3cnc(N)nc3N)cc2OC)cc1 [GW2580] (first compound 1.6 µM, partner dose 1 µM) | 124 | 99.1 | 75.6 | 142 | 71.3 | 116
O=C(Nc1ccccc1)c1cc([N+](=O)[O-])ccc1Cl + Cc1cc(SCc2sc(-c3ccc(C(F)(F)F)c(F)c3)nc2C)ccc1OCC(=O)O [GW0742] (first compound 2 µM, partner dose 2 µM) | 74.6 | 140 | 210 | 81 | 83.9 | 31.3
N.N.[Cl][Pt][Cl] [cisplatin] + C[As](C)SC[C@H](NC(=O)CC[C@H](N)C(=O)O)C(=O)NCC(=O)O [Darinaparsin] (first compound 1.6 µM, partner dose 0.4 µM) | 94 | 70.7 | 94.5 | 42.2 | 74.4 | 40.9
Cn1sc(=O)n(Cc2ccccc2)c1=O + O=C(Oc1ccc([N+](=O)[O-])cc1)N1CCC(C(O)(c2ccc3c(c2)OCO3)c2ccc3c(c2)OCO3)CC1 [JZL184] (first compound 0.4 µM, partner dose 1 µM) | 188 | 132 | 76.6 | 79.2 | 97.7 | 117
CN1CCN(c2ccc3nc(-c4c(N)c5c(F)cccc5[nH]c4=O)[nH]c3c2)CC1 [Dovitinib] + O=C(Oc1ccc([N+](=O)[O-])cc1)N1CCC(C(O)(c2ccc3c(c2)OCO3)c2ccc3c(c2)OCO3)CC1 [JZL184] (first compound 0.1 µM, partner dose 1 µM) | 120 | 156 | 115 | 90 | 92.7 | 136
C[C@]12O[C@H](C[C@]1(O)CO)n1c3ccccc3c3c4c(c5c6ccccc6n2c5c31)CNC4=O [Lestaurtinib] + CCCS(=O)(=O)Nc1ccc(F)c(C(=O)c2c[nH]c3ncc(Cl)cc23)c1F [PLX4720] (first compound 0.004 µM, partner dose 0.08 µM) | 186 | 38.4 | 98.8 | 103 | 78.9 | 87.4
C[C@]12O[C@H](C[C@]1(O)CO)n1c3ccccc3c3c4c(c5c6ccccc6n2c5c31)CNC4=O [Lestaurtinib] + Clc1ccc(Nc2nnc(Cc3ccncc3)c3ccccc23)cc1 [vatalanib] (first compound 0.004 µM, partner dose 2 µM) | 116 | 136 | 92 | 16 | 87.6 | 71.6
CCc1ccc(CCOc2ccc(CC3SC(=O)NC3=O)cc2)nc1 (centres undefined) [pioglitazone] + C/C(O)=C(\C#N)C(=O)Nc1cc(Br)ccc1Br [LFM-A13] (first compound 2 µM, partner dose 2 µM) | 99.2 | 65.3 | 130 | 80.3 | 170 | 120
Cn1cc(C2=C(c3cn(C4CCN(Cc5ccccn5)CC4)c4ccccc34)C(=O)NC2=O)c2ccccc21 [Enzastaurin] + Cn1cncc1[C@@](N)(c1ccc(Cl)cc1)c1ccc2c(c1)c(-c1cccc(Cl)c1)cc(=O)n2C [tipifarnib] (first compound 0.8 µM, partner dose 0.01 µM) | 102 | 88.6 | 169 | 63.3 | 75.3 | 235
COc1ccc(COc2ccc(Cc3cnc(N)nc3N)cc2OC)cc1 + C/C(O)=C(\C#N)C(=O)Nc1cc(Br)ccc1Br [LFM-A13] (first compound 1 µM, partner dose 2 µM) | 206 | 63.6 | 112 | 79 | 76.8 | 77.1
COC(=O)c1sccc1S(=O)(=O)Nc1ccc(Nc2ccccc2)cc1OC + C/C(O)=C(\C#N)C(=O)Nc1cc(Br)ccc1Br [LFM-A13] (first compound 1 µM, partner dose 2 µM) | 127 | 185 | 108 | 138 | 262 | 131
N#CC[C@H](C1CCCC1)n1cc(-c2ncnc3[nH]ccc23)cn1 [ruxolitinib] + O=C(Oc1ccc([N+](=O)[O-])cc1)N1CCC(C(O)(c2ccc3c(c2)OCO3)c2ccc3c(c2)OCO3)CC1 [JZL184] (first compound 1 µM, partner dose 1 µM) | 52.8 | 53 | 96.4 | 131 | 93 | 20.3
C[As](C)SC[C@H](NC(=O)CC[C@H](N)C(=O)O)C(=O)NCC(=O)O [Darinaparsin] + C[C@@H]1CCN(C(=O)CC#N)C[C@@H]1N(C)c1ncnc2[nH]ccc12 [CP690550] (first compound 0.4 µM, partner dose 1 µM) | 135 | 66.9 | 81 | 59.8 | 89.2 | 115
C[C@]12O[C@H](C[C@]1(O)CO)n1c3ccccc3c3c4c(c5c6ccccc6n2c5c31)CNC4=O [Lestaurtinib] + COCC[n+]1c2c(n(Cc3cnccn3)c1C)C(=O)c1ccccc1C2=O [YM155] (first compound 0.004 µM, partner dose 0.0004 µM) | 126 | 50.6 | 19 | 20.9 | 87.6 | 56
Cn1cc(C2=C(c3cn(C4CCN(Cc5ccccn5)CC4)c4ccccc34)C(=O)NC2=O)c2ccccc21 [Enzastaurin] + NC1(c2ccc(-c3nc4ccn5c(=O)[nH]nc5c4cc3-c3ccccc3)cc2)CCC1 [MK2206] (first compound 0.8 µM, partner dose 0.4 µM) | 135 | 68.6 | 115 | 86.1 | 115 | 73

A second format for part of the listing above:
SMILES	cleaved PARP positive nuclei fraction (WM115) [%]	cleaved PARP positive nuclei fraction (WM1716) [%]	cleaved PARP positive nuclei fraction (WM1745) [%]	cleaved PARP positive nuclei fraction (WM3526) [%]	cleaved PARP positive nuclei fraction (WM3619) [%]	cleaved PARP positive nuclei fraction (WM451Lu) [%]
O=C(O)c1ccc2c(c1)nc(Nc1cccc(Cl)c1)c1ccncc12 + Cc1cc(SCc2sc(-c3ccc(C(F)(F)F)c(F)c3)nc2C)ccc1OCC(=O)O [GW0742] (first compound 0.4 µM, partner dose 2 µM)	88	213	94.2	87.5	93.3	125
C[As](C)SC[C@H](NC(=O)CC[C@H](N)C(=O)O)C(=O)NCC(=O)O [Darinaparsin] + NCC(=O)Nc1ccc(-n2nc(C(F)(F)F)cc2-c2ccc3c(ccc4ccccc43)c2)cc1 [OSU03012] (first compound 0.4 µM, partner dose 1 µM)	121	102	195	110	91.7	94.1
Cn1sc(=O)n(Cc2ccccc2)c1=O + O=C(Oc1ccc([N+](=O)[O-])cc1)N1CCC(C(O)(c2ccc3c(c2)OCO3)c2ccc3c(c2)OCO3)CC1 [JZL184] (first compound 0.4 µM, partner dose 1 µM)	188	132	76.6	79.2	97.7	117
CN1CCN(c2ccc3nc(-c4c(N)c5c(F)cccc5[nH]c4=O)[nH]c3c2)CC1 [Dovitinib] + O=C(Oc1ccc([N+](=O)[O-])cc1)N1CCC(C(O)(c2ccc3c(c2)OCO3)c2ccc3c(c2)OCO3)CC1 [JZL184] (first compound 0.1 µM, partner dose 1 µM)	120	156	115	90	92.7	136
Cn1cc(C2=C(c3cn(C4CCN(Cc5ccccn5)CC4)c4ccccc34)C(=O)NC2=O)c2ccccc21 [Enzastaurin] + Cn1cncc1[C@@](N)(c1ccc(Cl)cc1)c1ccc2c(c1)c(-c1cccc(Cl)c1)cc(=O)n2C [tipifarnib] (first compound 0.8 µM, partner dose 0.01 µM)	102	88.6	169	63.3	75.3	235
COC(=O)c1sccc1S(=O)(=O)Nc1ccc(Nc2ccccc2)cc1OC + C/C(O)=C(\C#N)C(=O)Nc1cc(Br)ccc1Br [LFM-A13] (first compound 1 µM, partner dose 2 µM)	127	185	108	138	262	131
